From patent US11535594B2, “Microbiocidal picolinamide derivatives” (Syngenta Participations AG, priority 2017, dated 2022)
Some results were stated once for a whole list of compounds, not compound by compound.

These compounds were tested on Pyrenophora teres (assay: Pyrenophora teres / barley / leaf disc preventative (net blotch)). Conditions: 200 ppm; barley leaf segments cv. Hasso, inoculated 2 days after application, assessed 5-7 days after application, compared to untreated.
Assay type: in vivo

| Compound | control of Pyrenophora teres |
| --- | --- |
| COc1ccnc(C(=O)N[C@@H](C)C(=O)ON(C)C(C)(c2ccc(F)cc2)c2ccc(Cl)cc2)c1O (stereo partly drawn) [I.t.02, [[1-(4-chlorophenyl)-1-(4-fluorophenyl)ethyl]-methyl-amino] (2S)-2-[(3-hydroxy-4-methoxy-pyridine-2-carbonyl)amino]propanoate] | at least 80% |
| COc1ccnc(C(=O)N[C@@H](C)C(=O)ON(C)C(C)(c2ccccc2)c2ccccc2)c1O [I.m.02, [1,1-diphenylethyl (methyl)amino] (2S)-2-[(3-hydroxy-4-methoxy-pyridine-2-carbonyl)amino] propanoate] | at least 80% |
| COc1ccnc(C(=O)N[C@@H](C)C(=O)ON(C)C(C)(c2ccc(Cl)cc2)c2ccc(Cl)cc2)c1OC(C)=O [I.u.14, [1,1-bis(4-chlorophenyl)ethyl-methyl-amino] (2S)-2-[(3-acetoxy-4-methoxy-pyridine-2-carbonyl)amino]propanoate] | at least 80% |
| COc1ccnc(C(=O)N[C@@H](C)C(=O)ON(C)C(C)(c2ccccc2)c2ccc(Cl)cc2)c1O (stereo partly drawn) [I.o.02, [[1-(4-chlorophenyl)-1-phenyl-ethyl]-methyl-amino] (2S)-2-[(3-hydroxy-4-methoxy-pyridine-2-carbonyl)amino]propanoate] | at least 80% |
| CCC(c1ccccc1)(c1ccccc1)N(C)OC(=O)[C@H](C)NC(=O)c1nccc(OC)c1O [I.m.03, [1,1-diphenylpropyl (methyl)amino] (2S)-2-[(3-hydroxy-4-methoxy-pyridine-2-carbonyl)amino]propanoate] | at least 80% |
| COc1ccnc(C(=O)N[C@@H](C)C(=O)ON(C)C(C)(c2ccc(F)cc2)c2ccc(F)cc2)c1O [I.s.02, [1,1-bis(4-fluorophenyl)ethyl-methyl-amino] (2S)-2-[(3-hydroxy-4-methoxy-pyridine-2-carbonyl)amino] propanoate] | at least 80% |
